Experimental data reported in PubChem BioAssay AID256 (DTP/NCI, 2004).
The list shows only some results of the screen, not a fair sample: it gathers tests that were run many times, whatever their T/C, doses with no T/C, and many T/C values between a quarter and a half above the control. Other doses and runs of a compound stand elsewhere. T/C: endpoint of the treated group in % of that of the vehicle group. Some doses have a count of surviving animals in place of a T/C: the source files T/C as zero there, which appears to mark a toxic dose or a test without result, not a measured value. Some doses without a T/C left all or most animals alive at the check, yet need not have been tolerated: the source hardly ever lists a survival T/C far under the control, and the zero likely stands for such cases as well. Counts of survivors are from the toxicity check (mostly the fifth day) where no day follows; animals may have died later. Schedules are NCI's codes, read here as Q, the interval in days (D) or hours (H), X, the number of doses. Some doses were run more than once; the results are listed from low to high. For survival time, this PubChem deposit counts one and a half times the control or more as active, and values a quarter to a half above the control carry no call in these data; other NCI protocols may use other cut-offs. Some schedule codes hold Z or #, which are not explained here. Some T/C values carry the count of animals alive at the toxicity check (mostly the fifth day); without a count, all were alive then.

Tested on: CD2F1 mice, L1210 leukemia ip, survival T/C
Assay: NCI In Vivo Anticancer Drug Screen. Data for tumor model L1210 Leukemia (intraperitoneal) in CD2F1 (CDF1) mice
Details: higher T/C = longer survival
Summary of the method: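 Transplantable tumor in mice; compound-treated vs vehicle-treated groups. Read-out = treated/control ratio of the measured endpoint.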

[1] = T/C endpoint: mean survival time, dose: 100.0 mg/kg/injection, schedule: Q01DX009 (ip), vehicle: saline with Tween-80
[2] = T/C endpoint: mean survival time, dose: 400.0 mg/kg/injection, schedule: Q01DX001 (ip), vehicle: saline with Tween-80
[3] = T/C endpoint: mean survival time, dose: 400.0 mg/kg/injection, schedule: Q04DX003 (ip), vehicle: saline with Tween-80
[4] = T/C endpoint: mean survival time, dose: 200.0 mg/kg/injection, schedule: Q04DX003 (ip), vehicle: saline with Tween-80
[5] = T/C endpoint: mean survival time, dose: 100.0 mg/kg/injection, schedule: Q04DX002 (ip), vehicle: saline with Tween-80
[6] = T/C endpoint: mean survival time, dose: 200.0 mg/kg/injection, schedule: Q04DX002 (ip), vehicle: saline with Tween-80
[7] = T/C endpoint: mean survival time, dose: 400.0 mg/kg/injection, schedule: Q04DX002 (ip), vehicle: saline with Tween-80

CC(NC(=O)NCCCl)c1ccccc1 (stereo not drawn)
survivor count (T/C endpoint: mean survival time, dose: 100.0 mg/kg/injection, schedule: Q01DX009 (ip), vehicle: saline): 2 of 6

N#CCCN1c2ccccc2Sc2ccccc21
survivor count (T/C endpoint: mean survival time, dose: 300.0 mg/kg/injection, schedule: Q04DX003 (ip), vehicle: saline): 0 of 6

N#C/C(=C\c1c(O)ccc2ccccc12)c1ccc([N+](=O)[O-])cc1
T/C (T/C endpoint: mean survival time, dose: 25.0 mg/kg/injection, schedule: Q01DX009 (ip), vehicle: saline with Tween-80): 135 % of control | T/C (T/C endpoint: mean survival time, dose: 50.0 mg/kg/injection, schedule: Q01DX009 (ip), vehicle: saline with Tween-80): 135 % of control | T/C [1]: 140 % of control [5 of 6 alive] | survivor count (T/C endpoint: mean survival time, dose: 200.0 mg/kg/injection, schedule: Q01DX009 (ip), vehicle: saline with Tween-80): 3 of 6 | survivor count (T/C endpoint: mean survival time, dose: 400.0 mg/kg/injection, schedule: Q01DX009 (ip), vehicle: saline with Tween-80): 3 of 6

CCOC(=O)C1=C(C#N)C2(CCC(OCc3ccccc3)CC2)C(=O)O1 (stereo not drawn)
survivor count (T/C endpoint: mean survival time, dose: 400.0 mg/kg/injection, schedule: Q01DX009 (ip), vehicle: saline): 2 of 6

CC[n+]1ccc(Nc2ccc(/C=C/c3ccc4cc(Nc5cc[n+](CC)cc5)ccc4[n+]3CC)cc2)cc1
survivor count (T/C endpoint: mean survival time, dose: 20.0 mg/kg/injection, schedule: Q01DX009 (oral), vehicle: saline): 4 of 6

CCOC(=O)Cc1cnc(SC)nc1Nc1ccc(F)cc1
survivor count [2]: 1 of 6

C[N+](C)(C)CC1CCCC1
survivor count (T/C endpoint: mean survival time, dose: 80.0 mg/kg/injection, schedule: Q01DX001 (ip), vehicle: saline): 0 of 6

Cc1ncc2cnccn12
survivor count (T/C endpoint: mean survival time, dose: 200.0 mg/kg/injection, schedule: Q01DX009 (ip), vehicle: saline sonified): 3 of 6 | survivor count (T/C endpoint: mean survival time, dose: 400.0 mg/kg/injection, schedule: Q04DX003 (ip), vehicle: saline): 0 of 6

O=C(C=C(C(F)(F)F)C(F)(F)F)c1ccc(C(=O)C=C(C(F)(F)F)C(F)(F)F)cc1
survivor count [3]: 0 of 6

O=C(CBr)CCS(=O)(=O)c1ccc(Cl)cc1
survivor count (T/C endpoint: mean survival time, dose: 100.0 mg/kg/injection, schedule: Q04DX003 (ip), vehicle: saline with Tween-80): 0 of 6 | survivor count [4]: 0 of 6 | survivor count [3]: 0 of 6

COc1ccc(CC2C(=O)NC(C)C(=O)N(C)C3C(=O)N(C)C(Cc4ccc(O)c(c4)Oc4ccc(cc4)C3O)C(=O)NC(C)C(=O)NC(C)C(=O)N2C)cc1 (stereo not drawn)
T/C (T/C endpoint: mean survival time, dose: 0.5 mg/kg/injection, schedule: Q01DX009 (ip), vehicle: saline): 129 % of control | survivor count (T/C endpoint: mean survival time, dose: 4.0 mg/kg/injection, schedule: Q01DX009 (ip), vehicle: Klucel (hydroxypropylcellulose) (HPC)): 3 of 6 | survivor count (T/C endpoint: mean survival time, dose: 8.0 mg/kg/injection, schedule: Q01DX009 (ip), vehicle: Klucel (hydroxypropylcellulose) (HPC)): 0 of 6 and 6 of 6

CN(C)N=Nc1ccccc1C(N)=O
T/C (T/C endpoint: mean survival time, dose: 67.0 mg/kg/injection, schedule: Q01DX009 (ip), vehicle: Klucel (hydroxypropylcellulose) (HPC)): 140 % of control | survivor count (T/C endpoint: mean survival time, dose: 225.0 mg/kg/injection, schedule: Q01DX009 (ip), vehicle: Klucel (hydroxypropylcellulose) (HPC)): 0 of 6 | survivor count (T/C endpoint: mean survival time, dose: 300.0 mg/kg/injection, schedule: Q01DX009 (ip), vehicle: Klucel (hydroxypropylcellulose) (HPC)): 0 of 6 and 2 of 6

CSc1ccc(N=C/C=C/c2ccccc2)cc1
survivor count [4]: 6 of 6

c1ccc([P+](c2ccccc2)(c2ccccc2)C2CCC2)cc1
survivor count (T/C endpoint: mean survival time, dose: 100.0 mg/kg/injection, schedule: Q01DX001 (ip), vehicle: saline): 3 of 6 | survivor count (T/C endpoint: mean survival time, dose: 200.0 mg/kg/injection, schedule: Q01DX001 (ip), vehicle: saline): 0 of 6 | survivor count (T/C endpoint: mean survival time, dose: 400.0 mg/kg/injection, schedule: Q01DX001 (ip), vehicle: saline): 0 of 6

CC12C=CC(=O)C=C1CCCC2 (stereo not drawn)
survivor count [5]: 1 of 3 | survivor count [6]: 0 of 3 | survivor count [7]: 0 of 3

Cc1cc(N(CCI)CCI)ccc1N=Nc1ccccc1C(=O)O
T/C (T/C endpoint: mean survival time, dose: 50.0 mg/kg/injection, schedule: Q01DX009 (ip), vehicle: Klucel (hydroxypropylcellulose) (HPC)): 132 % of control | survivor count (T/C endpoint: mean survival time, dose: 100.0 mg/kg/injection, schedule: Q01DX009 (ip), vehicle: Klucel (hydroxypropylcellulose) (HPC)): 3 of 3 | survivor count (T/C endpoint: mean survival time, dose: 200.0 mg/kg/injection, schedule: Q01DX009 (ip), vehicle: Klucel (hydroxypropylcellulose) (HPC)): 3 of 3

CC(CC(=O)Nc1ccc(S(=O)(=O)F)cc1)c1ccc(N2C(N)=NC(N)=NC2(C)C)cc1 (stereo not drawn)
T/C (T/C endpoint: mean survival time, dose: 200.0 mg/kg/injection, schedule: Q#A X018 (ip), vehicle: saline): 143 % of control

O=C(C=C(C(F)(F)F)C(F)(F)F)c1ccc(Br)cc1
survivor count (T/C endpoint: mean survival time, dose: 50.0 mg/kg/injection, schedule: Q01DX009 (ip), vehicle: other): 2 of 6 | survivor count (T/C endpoint: mean survival time, dose: 200.0 mg/kg/injection, schedule: Q04DX003 (ip), vehicle: other): 2 of 6 | survivor count (T/C endpoint: mean survival time, dose: 400.0 mg/kg/injection, schedule: Q04DX003 (ip), vehicle: other): 2 of 6

COC12[C@@H]3N[C@@H]3CN1C1=C(C(=O)C(NCCSSCCNC3=C(C)C(=O)C4=C(C3=O)C(COC(N)=O)[C@]3(OC)C5N[C@@H]5CN43)=C(C)C1=O)[C@@H]2COC(N)=O (stereo partly drawn)
T/C (T/C endpoint: mean survival time, dose: 3.0 mg/kg/injection, schedule: Q01DX001 (ip), vehicle: distilled water + Tween-80): 125 % of control | T/C (T/C endpoint: mean survival time, dose: 6.0 mg/kg/injection, schedule: Q01DX001 (ip), vehicle: distilled water + Tween-80): 127 % of control | survivor count (T/C endpoint: mean survival time, dose: 24.0 mg/kg/injection, schedule: Q01DX001 (ip), vehicle: distilled water + Tween-80): 5 of 6 | T/C (T/C endpoint: median survival time, dose: 0.4 mg/kg/injection, schedule: Q01DX009 (ip), vehicle: other): 132 % of control | T/C (T/C endpoint: median survival time, dose: 0.8 mg/kg/injection, schedule: Q01DX009 (ip), vehicle: other): 140 % of control | T/C (T/C endpoint: median survival time, dose: 1.6 mg/kg/injection, schedule: Q01DX001 (ip), vehicle: other): 140 % of control | T/C (T/C endpoint: median survival time, dose: 1.6 mg/kg/injection, schedule: Q01DX009 (ip), vehicle: other): 145 % of control | T/C (T/C endpoint: median survival time, dose: 1.6 mg/kg/injection, schedule: Q03DX003 (ip), vehicle: other): 145 % of control | T/C (T/C endpoint: median survival time, dose: 1.6 mg/kg/injection, schedule: Q04DX003 (ip), vehicle: other): 143 % of control | T/C (T/C endpoint: median survival time, dose: 3.2 mg/kg/injection, schedule: Q01DX001 (ip), vehicle: other): 143 % of control | T/C (T/C endpoint: median survival time, dose: 6.4 mg/kg/injection, schedule: Q01DX001 (ip), vehicle: other): 149 % of control | T/C (T/C endpoint: median survival time, dose: 9.6 mg/kg/injection, schedule: Q03DX003 (ip), vehicle: other): 145 % of control | T/C (T/C endpoint: median survival time, dose: 12.8 mg/kg/injection, schedule: Q01DX001 (ip), vehicle: other): 142 % of control | T/C (T/C endpoint: median survival time, dose: 12.8 mg/kg/injection, schedule: Q04DX003 (ip), vehicle: other): 144 % of control

Nc1nc2c(ncn2C2CC(O)C(CO)O2)c(=O)n1N (stereo not drawn)
survivor count (T/C endpoint: mean survival time, dose: 300.0 mg/kg/injection, schedule: Q01DX001 (ip), vehicle: saline): 2 of 6

C1=C[N]2c3c4c(ccc3=C1)=CC=C[N]4[Ga]2[c]1ccccc1
survivor count [4]: 3 of 6 | survivor count [3]: 0 of 6

c1ccc([P+](Cc2ccc(C[P+](c3ccccc3)(c3ccccc3)c3ccccc3)cc2)(c2ccccc2)c2ccccc2)cc1
survivor count (T/C endpoint: mean survival time, dose: 0.63 mg/kg/injection, schedule: Q04DX003 (ip), vehicle: saline with Tween-80): 6 of 6 | survivor count (T/C endpoint: mean survival time, dose: 1.25 mg/kg/injection, schedule: Q04DX003 (ip), vehicle: saline with Tween-80): 2 of 6 | survivor count (T/C endpoint: mean survival time, dose: 2.5 mg/kg/injection, schedule: Q04DX003 (ip), vehicle: saline with Tween-80): 0 of 6 | survivor count (T/C endpoint: mean survival time, dose: 5.0 mg/kg/injection, schedule: Q04DX003 (ip), vehicle: saline with Tween-80): 0 of 6

CN1COc2cc3c(cc2C1)OCN(C)C3
survivor count [2]: 0 of 3

Cc1cc(OCC2=NCCN2)c(C)c(C)c1Cl
survivor count [5]: 0 of 3 | survivor count [6]: 0 of 3 | survivor count [7]: 0 of 3

COc1cc(OC)c(NC(=O)Nc2c(C)n(C)n(-c3ccccc3)c2=O)cc1Cl
survivor count [1]: 3 of 3
